Laboratory results: patent publication US10709765B2, “Composition for inhibiting survival or growth of tubercle bacillus by adjusting polarization of macrophage, and method using same” (priority 2016, dated 2020)
At least one compound was matched to its structure with a doubt left.

System: Mycobacterium tuberculosis
Format: cell-based
Conditions: anti-tuberculosis drug alone

SMILES: CO[C@H]1/C=C/O[C@@]2(C)Oc3c(C)c(O)c4c(O)c(c(/C=N/N5CCN(C)CC5)c(O)c4c3C2=O)NC(=O)/C(C)=C\C=C\[C@H](C)[C@H](O)[C@@H](C)[C@@H](O)[C@@H](C)[C@H](OC(C)=O)[C@@H]1C [Rifampicin]
- number of intracellular Mycobacterium tuberculosis: the number of Mycobacterium tuberculosis was reduced
